The whole screen tested about 2,200 compounds, of which about 15 (0.7%) were called active.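 The calls were made as follows: active = fitted half-maximal concentration for loss of luminescence signal no more than a set limit of log units above the top tested concentration; inconclusive = flat fit with 30 to 70% signal loss, or invalid fit; inactive = half-maximal concentration above that set limit.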 Some of the results follow.

The nature of the test: inhibitors of ADP-Glo detection reagents, dose response, artefact control for GSK3beta inhibitor project, biochemical, luminescence, cell-free, homogeneous (AID 434947).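 Also: kinase-free counter screen of ADP-Glo detection reagents for GSK3beta hits.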 To be noted: 5 uM ADP.
`COc1ccc(Nc2nc(N)c(C(=O)c3ccc(F)cc3)s2)cc1`: the EC50 was inactive: > 30 µM.

In the case of `CC(/C=N/NC(=O)c1nnn(-c2nonc2N)c1CN1CCCCC1)=C\c1ccccc1`, the EC50 was inactive: > 30 µM. For `Cc1cc(NC(=O)/C=C/c2cccc(F)c2)n(-c2nc3ccccc3[nH]2)n1`, the EC50 was inactive: > 30 µM. Under `COc1cc(/C=N/NC(=O)c2ccncc2)ccc1Oc1ccc([N+](=O)[O-])cn1` stands inactive: > 30 µM. Under `CN(C)CCCNc1nc(N)c([N+](=O)[O-])c(NCCO)n1` stands inactive: > 30 µM; under `CCSc1nnc(-c2ccncc2)o1`, inactive: > 30 µM. Under `CC1CCCN(S(=O)(=O)c2ccc(Br)s2)C1` (stereo not drawn) stands inactive: > 30 µM. In the case of `COc1ccc2nc(NC(=O)CCNC(=O)c3ccccc3Cl)sc2c1`, the EC50 is inactive: > 30 µM. Turning to `COc1ccc(C(C)(C)C)cc1NS(=O)(=O)c1cccc2cccnc12`, the EC50 is inactive: > 30 µM.

Regarding `CC(C)(C)C(=O)c1sc(Nc2ccccc2)nc1N`, the EC50 was inactive: > 30 µM.

`COc1cccc(-c2ccc3nnc(SCC(=O)Nc4ccc(NC(C)=O)cc4)n3n2)c1`: the EC50 was inactive: > 30 µM.

As to `CC(=O)N1CCc2c(sc(NC(=O)CN3C(=O)c4ccccc4C3=O)c2C(N)=O)C1`, the EC50 is inactive: > 30 µM. Turning to `COc1cccc(C2C3=C(CC(C)(C)CC3=O)Nc3cc4c(cc32)OCO4)c1` (stereo not drawn), the EC50 was inactive: > 30 µM. Under `COc1ccc(OC)c(CCNC(=O)c2ccc3c(=O)[nH]c4c(C(=O)NC(C)C)sc(=S)n4c3c2)c1` stands inactive: > 30 µM.

Consider `COc1cccc2cc(C(=O)CS(=O)(=O)c3ccc(Cl)cc3)c(=O)oc12`, for which the EC50 was inactive: > 30 µM. Under `CCSc1nc(-c2ccccc2)c(C#N)c(=O)[nH]1` stands inactive: > 30 µM; under `CCC(NC(=O)Cc1c(C)c2cc3c(cc2oc1=O)OC(C)(C)CC3)C(=O)O` (stereo not drawn), inactive: > 30 µM. Take `Nc1nc(NCC2CCCO2)nc(Nc2ccccc2F)c1[N+](=O)[O-]` (stereo not drawn): the EC50 is inactive: > 30 µM.

With `O=C(O)c1cc(-c2ccc(/C=N/Nc3ccc(Cl)cc3)o2)ccc1Cl`, the EC50 was inactive: > 30 µM. Turning to `Cc1ccc(OCC(=O)N/N=C\c2ccc(O)c([N+](=O)[O-])c2)c([N+](=O)[O-])c1`, the EC50 was inactive: > 30 µM. Consider `COCCCNc1nc(N)c([N+](=O)[O-])c(Nc2cc(OC)ccc2OC)n1`, for which the EC50 is inactive: > 30 µM. On to `Nc1nc(NCCc2ccccc2)nc(NCCO)c1[N+](=O)[O-]`, for which the EC50 is inactive: > 30 µM. Under `CCOC(=O)C(CC)Sc1ncnc2nc[nH]c12` (stereo not drawn) stands inactive: > 30 µM; under `CN(Cc1ccccc1)S(=O)(=O)c1ccc2c(c1)NC(=O)CC(=O)N2`, inactive: > 30 µM. Under `CN(C)c1nc2c(N)ncnc2n1[C@H]1O[C@@H](CO)[C@H](O)[C@@H]1O` stands inactive: > 30 µM. Under `CCCN(CCC)c1nc(N)nc(-c2cc(Cl)ccc2OC)n1` stands inactive: > 30 µM; under `COc1cccc(C2C(C(=O)OCc3ccccc3)=C(C)Nc3ncnn32)c1OC` (stereo not drawn), inactive: > 30 µM.

Consider `Cc1ccnc(NC(=O)C(C)n2cc([N+](=O)[O-])cn2)c1` (stereo not drawn), for which the EC50 is inactive: > 30 µM. Under `CC(c1ccccc1)n1c(CCCO)nc2ccccc21` (stereo not drawn) stands inactive: > 30 µM.

For the compound `O=C1CN(C(=O)c2ccco2)c2ccccc2N1`, the EC50 was inactive: > 30 µM. On to `C=C1CSc2nc(=O)c3c4c(sc3n21)CCCC4`, for which the EC50 was inactive: > 30 µM. Turning to `Cc1ccc(C(=O)N/N=C\c2ccc(-c3ccc([N+](=O)[O-])cc3)o2)cn1`, the EC50 is inactive: > 30 µM. Under `c1cncc(-c2nc(NCC3CCCO3)c3ccccc3n2)c1` (stereo not drawn) stands inactive: > 30 µM; under `COc1ccc(C2C3=C(CCCC3=O)Nc3n[nH]c(C)c32)cc1OC` (stereo not drawn), inactive: > 30 µM. With `CN=C(C)/C(C(=O)OC)=C(/O)c1ccc(Cl)cc1Cl`, the EC50 is inactive: > 30 µM. On to `Cc1ccc(Nc2nc(NCC3CCCO3)nc(N)c2[N+](=O)[O-])cc1C` (stereo not drawn), for which the EC50 is inactive: > 30 µM. Under `COCCNc1nc(N)c([N+](=O)[O-])c(NCC2CCCO2)n1` (stereo not drawn) stands inactive: > 30 µM; under `Cc1cc(NC(=O)CSc2ccc3nnc(-c4ccc(F)cc4)n3n2)no1`, inactive: > 30 µM. For the compound `CC(C)N1C(=O)N(c2ccc(Cl)cc2)C(C)(O)CC1(C)C` (stereo not drawn), the EC50 was inactive: > 30 µM.

With `COC(=O)c1nnn(-c2nonc2N)c1CN1CCc2ccccc21`, the EC50 was inactive: > 30 µM. Under `COc1cccc(NC2=CC(=O)CC(C)(C)C2)c1` stands inactive: > 30 µM. Under `Cc1ccc([N+](=O)[O-])cc1N=C1C(=O)Nc2ccccc21` stands inactive: > 30 µM.

With `Cn1c(=O)[nH]c(=O)c2c1nc1n2CCCS1`, the EC50 is inactive: > 30 µM. As to `Nc1nonc1-n1nnc(C(=O)N/N=C/c2ccccc2Cl)c1CN1CCOCC1`, the EC50 was inactive: > 30 µM. For `Cc1ccc(SCc2c(C(=O)N/N=C/c3ccoc3)nnn2-c2nonc2N)cc1`, the EC50 is inactive: > 30 µM.

As to `O=C1NC(=NCc2ccccc2)S/C1=C/c1ccc(O)cc1`, the EC50 is inactive: > 30 µM.

`COc1nc(N(C)C)nc(N(C#N)CCOC(C)=O)n1`: the EC50 is inactive: > 30 µM.

With `CCn1c(SCC(=O)Nc2ccc(F)cc2)nnc1C1CC1`, the EC50 is inactive: > 30 µM. For the compound `CC1(C)CC(=O)C2=C(C1)Nc1cc3c(cc1C2c1ccc(F)cc1)OCO3` (stereo not drawn), the EC50 was inactive: > 30 µM. Consider `Cc1ccc(Nc2nc(NCCCN3CCOCC3)nc(N)c2[N+](=O)[O-])cc1C`, for which the EC50 was inactive: > 30 µM.

Consider `COc1ccc(-c2nn(-c3ccccc3)cc2/C=N/Nc2ccc3ccccc3n2)cc1OC`, for which the EC50 is inactive: > 30 µM. `CNc1nc(N)c([N+](=O)[O-])c(Nc2cccc(F)c2)n1`: the EC50 is inactive: > 30 µM.

For the compound `Cc1ccc(N2CC(C(=O)NCCCn3ccnc3)CC2=O)cc1` (stereo not drawn), the EC50 is inactive: > 30 µM. As to `COc1ccc(Nc2nc(N)nc(CSc3nncn3C)n2)cc1`, the EC50 is inactive: > 30 µM. In the case of `Cn1ncc(Br)c1C(=O)Nc1cccc(C(F)(F)F)c1`, the EC50 is inactive: > 30 µM. Under `COc1ccc(C(=O)OCCc2ccc(O)cc2)cc1` stands inactive: > 30 µM; under `COc1ccc(OC)c(C(=O)c2coc3ccc(O)c(CN(C)C)c23)c1`, inactive: > 30 µM; under `O=C(CCS(=O)(=O)c1ccccc1)Nc1ncc([N+](=O)[O-])s1`, inactive: > 30 µM.

Broadly, the EC50 is the concentration that produces a half-maximal response.

Values taken from PubChem BioAssay AID434947 (Broad Institute, 2010).
